Data as given in article doi:10.1101/2023.08.07.552250.
Where two headings read alike, the source gives them in different places. Results are given in words; binding and its absence hold for the method and conditions named. For some of these results: A result given as binding can be weak or reduced; the word gives no strength. For some of these results: In cells and extracts the contact can be indirect. For some of these results: Where a sequence is shown, tags or fusion partners need not be part of it.

Protein sequences, listed by entry. Tags and fused reporters are not part of them.
UniProt Q9LY75: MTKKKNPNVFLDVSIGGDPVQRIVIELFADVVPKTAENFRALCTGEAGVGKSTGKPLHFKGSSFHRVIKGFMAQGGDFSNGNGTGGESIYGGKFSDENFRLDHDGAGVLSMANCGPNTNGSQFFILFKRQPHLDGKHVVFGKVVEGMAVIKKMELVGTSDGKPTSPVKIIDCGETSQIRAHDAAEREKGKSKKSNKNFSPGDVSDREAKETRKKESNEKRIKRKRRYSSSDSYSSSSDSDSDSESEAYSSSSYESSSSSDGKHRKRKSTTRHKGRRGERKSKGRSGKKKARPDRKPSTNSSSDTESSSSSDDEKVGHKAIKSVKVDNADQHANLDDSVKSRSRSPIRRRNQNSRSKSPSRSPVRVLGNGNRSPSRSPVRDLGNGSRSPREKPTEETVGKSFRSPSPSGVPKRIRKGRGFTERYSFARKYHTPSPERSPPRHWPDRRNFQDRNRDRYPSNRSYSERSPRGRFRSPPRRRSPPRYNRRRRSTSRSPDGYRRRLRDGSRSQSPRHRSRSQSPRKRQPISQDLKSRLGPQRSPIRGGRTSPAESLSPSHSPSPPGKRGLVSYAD

T1: SR45mutRRM (Arabidopsis thaliana) (UniProt Q9SEE9)
T1 sequence: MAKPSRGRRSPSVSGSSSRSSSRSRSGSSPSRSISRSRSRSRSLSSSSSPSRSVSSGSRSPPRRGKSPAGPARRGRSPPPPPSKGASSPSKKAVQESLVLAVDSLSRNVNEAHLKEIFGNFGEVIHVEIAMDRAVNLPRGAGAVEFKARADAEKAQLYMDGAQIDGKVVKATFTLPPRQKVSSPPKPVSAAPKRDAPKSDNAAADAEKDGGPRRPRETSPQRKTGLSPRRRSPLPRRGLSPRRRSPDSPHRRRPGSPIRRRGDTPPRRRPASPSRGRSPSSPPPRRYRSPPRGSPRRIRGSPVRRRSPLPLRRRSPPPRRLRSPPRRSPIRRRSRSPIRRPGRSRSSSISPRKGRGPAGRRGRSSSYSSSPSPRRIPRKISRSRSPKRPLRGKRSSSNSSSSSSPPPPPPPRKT

T2: serine/arginine-rich 45 (SR45), SR45.1 isoform (Arabidopsis thaliana) (UniProt Q9SEE9)
T2 sequence: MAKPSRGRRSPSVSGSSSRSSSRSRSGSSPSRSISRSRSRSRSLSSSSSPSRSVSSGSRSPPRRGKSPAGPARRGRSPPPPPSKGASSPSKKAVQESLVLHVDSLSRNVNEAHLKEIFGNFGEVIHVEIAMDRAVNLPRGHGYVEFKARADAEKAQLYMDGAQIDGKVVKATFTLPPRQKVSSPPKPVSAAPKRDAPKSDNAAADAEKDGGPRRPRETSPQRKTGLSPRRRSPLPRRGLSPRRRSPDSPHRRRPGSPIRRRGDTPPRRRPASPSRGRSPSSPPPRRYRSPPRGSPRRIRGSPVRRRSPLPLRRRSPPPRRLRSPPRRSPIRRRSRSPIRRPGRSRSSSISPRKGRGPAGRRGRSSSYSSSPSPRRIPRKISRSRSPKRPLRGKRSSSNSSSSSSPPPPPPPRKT


How the values were obtained:
[1] = molecular target: SR45mutRS1+RS2 (Arabidopsis thaliana) (UniProt Q9SEE9); experiment: two-hybrid
[2] = molecular target: SR45mutRS2 (Arabidopsis thaliana) (UniProt Q9SEE9); experiment: two-hybrid
[3] = molecular target: SR45mutRS1+RRM (Arabidopsis thaliana) (UniProt Q9SEE9); experiment: two-hybrid
[4] = molecular target: SR45mutRS1 (Arabidopsis thaliana) (UniProt Q9SEE9); experiment: two-hybrid
[5] = molecular target: SR45mutRRM+RS2 (Arabidopsis thaliana) (UniProt Q9SEE9); experiment: two-hybrid
[6] = molecular target: T1, SR45mutRRM (Arabidopsis thaliana); experiment: two-hybrid
[7] = molecular target: T2, serine/arginine-rich 45 (SR45), SR45.1 isoform (Arabidopsis thaliana); experiment: two-hybrid
[8] = molecular target: SR45mutRS1+RS2:CYFP (Arabidopsis thaliana) (UniProt Q9SEE9); experiment: split reporter
[9] = molecular target: SR45mutRS1:CYFP (Arabidopsis thaliana) (UniProt Q9SEE9); experiment: split reporter
[10] = molecular target: SR45mutRS1+RS2 (Arabidopsis thaliana) (UniProt Q9SEE9); experiment: two-hybrid; remark: listed apart in the source
[11] = molecular target: SR45mutRS2 (Arabidopsis thaliana) (UniProt Q9SEE9); experiment: two-hybrid; remark: listed apart in the source
[12] = molecular target: SR45mutRS1+RRM (Arabidopsis thaliana) (UniProt Q9SEE9); experiment: two-hybrid; remark: listed apart in the source
[13] = molecular target: SR45mutRS1 (Arabidopsis thaliana) (UniProt Q9SEE9); experiment: two-hybrid; remark: listed apart in the source
[14] = molecular target: SR45mutRRM+RS2 (Arabidopsis thaliana) (UniProt Q9SEE9); experiment: two-hybrid; remark: listed apart in the source

Row | binding [10] | binding [11] | binding [12] | binding [13] | binding [14] | Molecule | other results
1 |  |  |  |  |  | CypRS64 (Cyclophilin-containing RS domain of 64 kDa) (from UniProt Q9LY75 1-570) | binding [1]: no binding; binding [2]: no binding; binding [3]: no binding; binding [4]: no binding; binding [5]: no binding
2 |  |  |  |  |  | SRPK4 (Arabidopsis thaliana) (enzyme) | binding [6]: binds; binding [7]: binds
3 |  |  |  |  |  | PININ (Arabidopsis thaliana) | binding [6]: no binding; binding [7]: binds
4 |  |  |  |  |  | PRP38:NYFP (protein, UniProt Q8LB54 1-355) MANRTDPLAKNIRGTNPQNLVEKIVRTKIYQHTFWKEQCFGLTAETLVDKAMELDHLGGTFGGSRKPTPFLCLILKMLQIQPEKEIVVEFIKNDDYKYVRILGAFYLRLTGTDVDVYRYLEPLYNDYRKVRQKLSDGKFSLTHVDEVIEELLTKDYSCDIAMPRLKKRWTLEQNGLLEPRKSVLEDDFEEEEEKEENEGIADGSEDEMDQRRKSPERERERDRDRRRDSHRHRDRDYDRDYDMDRDHDRDYERERGHGRDRDRERDRDHYRERDRDRERGRDRERDRRDRARRRSRSRSRDRKRHETDDVRDREEPKKKKEKKEKMKEDGTDHPNPEIAEMNRLRASLGMKPLRD | binding [8]: binds; binding [9]: binds
5 | no binding | no binding | no binding | no binding | no binding | CypRS92 (protein, UniProt Q8RWY7 1-837) MAKKKNPQVFMDVSIDGDPAETMVFELFPEVAPKTSENFRALCTGEKGIGPRSGKPLHYKGSFFHRIMKGSSAQAGDFVNRNGTAGESIYAGKFPDESPKLRHEETGLLSMSIADRDKFGSHFHITFRPNQQLDRNNVVFGKLIQGKEILKKIERVGDEEGKPTVSVKIIRCGEYSGDKKKSDGKKNGKHKKSLRVRRKKRRRHSSSESESSSDSETDSSESDSESDSDLSSPSFLSSSSHERQKKRKRSSKKDKHRRSKQRDKRHEKKRSMRDKRPKRKSRRSPDSLEDSNSGSEASLSDVNVEIGAKKRKHRVSRRTGNSAPAVEKEAESLHQGKRKGPDLLENRGLRSNGISDAASEQISDRQPDIVDDHPSKSRSRSLSPKRTVSKSTSVSPRRSQSKSPSSSPRWNGGRSPAKGSRQVKNLTNSRRESPGSEEKGRHVRRSPTKSVSRSPVRVKKERDISRSPSKSLSRSPLRSPKRVISRSPVRGRIARSPSRSPVRSASRGSLGRGPLRRSSRRSPSRSPVRSSRRSLSRSPIQLSRRSLSRSPTRLSRRSLSRSPIRSPRKSVSRSPVRSSRKSVSRSPVRSSRRRISRSPVRSSRKSVSRSPIRLSRRSISRSPIRLSRRSISRSPVRGRRRISRSPVPARRRSVRPRSPPPDRRRSLSRSASPNGRIRRGRGFSQRFSYARRYRTSPSPDRSPYRFSDRSDRDRFRSRRRFSPSRFRSPLRGRTPPRYRRRSRSVSPGLCYRNRRYSRSPIRSRSPPYRKRRSPSASHSLSPSRSRSRSKSYSKSPIGTGKARSVSRSPSKARSPSKSDSTSSDNSPGGKKGLVAYD | 
6 |  |  |  |  |  | SR34:NYFP (protein, UniProt O22315 1-303) MSSRSSRTVYVGNLPGDIREREVEDLFSKYGPVVQIDLKVPPRPPGYAFVEFDDARDAEDAIHGRDGYDFDGHRLRVELAHGGRRSSDDTRGSFNGGGRGGGRGRGDGGSRGPSRRSEFRVLVTGLPSSASWQDLKDHMRKGGDVCFSQVYRDARGTTGVVDYTCYEDMKYALKKLDDTEFRNAFSNGYVRVREYDSRKDSRSPSRGRSYSKSRSRSRGRSVSRSRSRSRSRSRSPKAKSSRRSPAKSTSRSPGPRSKSRSPSPRRSRSRSRSPLPSVQKEGSKSPSKPSPAKSPIHTRSPSR | binding [8]: no binding; binding [9]: binds
7 | no binding | no binding | no binding | no binding | no binding | Cyp59 (protein, UniProt Q6Q151 1-506) MSVLIVTSLGDIVIDLHSDKCPLTCKNFLKLCKIKYYNGCLFHTVQKDFTAQTGDPTGTGAGGDSIYKFLYGEQARFYKDEIHLDLKHSKTGTVAMASGGENLNASQFYFTLRDDLDYLDGKHTVFGQIAEGFDTLTRINEAYVDPKNRPYKNIRIKHTHILDDPFDDPPQLAEMMPDASPEGKPKEEVKDDVRLEDDWVPMDEELGAQELEEVIREKAAHSSAVVLESIGDIPEAEVKPPDNVLFVCKLNPVTEDEDLHTIFSRFGTVVSADVIRDFKTGDSLCYAFIEFENKESCEQAYFKMDNALIDDRRIHVDFSQSVSKLWSQFRQKDSQKGKGNGCFKCGSTDHIAKDCVGGPSSKFIVKDQNRQHGGGEGYEMVFEGDVHETPKHNSHERERSEKIQRRSPHGNGEGKRQHRDERDDGRRQHDREDARELERKHRERKERESREDEDRRRRRRREESRDKESRRERDEDDHRSHRDYKERRRERDDRHGREARHERRDR | 
8 | no binding | binds | no binding | no binding | binds | AFC2 (enzyme, UniProt P51567 1-427) MEMERVHEFPHTHMDRRPRKRARLGWDVLPQATKAQVGMFCGQEIGNISSFASSGAPSDNSSSLCVKGVARNGSPPWREDDKDGHYIFELGDDLTPRYKIYSKMGEGTFGQVLECWDRERKEMVAVKIVRGVKKYREAAMIEIEMLQQLGKHDKGGNRCVQIRNWFDYRNHICIVFEKLGSSLYDFLRKNNYRSFPIDLVREIGWQLLECVAFMHDLRMIHTDLKPENILLVSSDYVKIPEYKGSRLQRDVCYKRVPKSSAIKVIDFGSTTYERQDQTYIVSTRHYRAPEVILGLGWSYPCDVWSVGCIIVELCTGEALFQTHENLEHLAMMERVLGPFPQQMLKKVDRHSEKYVRRGRLDWPDGATSRDSLKAVLKLPRLQNLIMQHVDHSAGELINMVQGLLRFDPSERITAREALRHPFFARRR | 
